{
  "sequences": {"note": "Chains of the proteins cited; added tags and fusions are not shown.", "UniProt P23975, whole entry": "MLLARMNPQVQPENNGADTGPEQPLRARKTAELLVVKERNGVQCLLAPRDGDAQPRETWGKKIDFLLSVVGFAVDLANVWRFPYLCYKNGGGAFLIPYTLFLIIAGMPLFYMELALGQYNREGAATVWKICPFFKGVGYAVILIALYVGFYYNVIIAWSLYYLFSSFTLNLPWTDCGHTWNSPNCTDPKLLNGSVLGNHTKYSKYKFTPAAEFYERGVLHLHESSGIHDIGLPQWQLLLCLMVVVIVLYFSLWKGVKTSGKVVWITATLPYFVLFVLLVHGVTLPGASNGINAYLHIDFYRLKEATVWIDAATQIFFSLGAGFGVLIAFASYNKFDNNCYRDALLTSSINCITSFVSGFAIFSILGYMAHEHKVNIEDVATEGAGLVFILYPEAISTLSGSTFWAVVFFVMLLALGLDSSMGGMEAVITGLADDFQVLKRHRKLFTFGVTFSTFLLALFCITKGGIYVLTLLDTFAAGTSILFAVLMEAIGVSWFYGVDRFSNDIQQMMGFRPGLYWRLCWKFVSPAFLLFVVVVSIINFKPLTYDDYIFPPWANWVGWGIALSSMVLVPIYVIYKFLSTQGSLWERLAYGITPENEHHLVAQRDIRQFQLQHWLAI", "UniProt P31645, whole entry": "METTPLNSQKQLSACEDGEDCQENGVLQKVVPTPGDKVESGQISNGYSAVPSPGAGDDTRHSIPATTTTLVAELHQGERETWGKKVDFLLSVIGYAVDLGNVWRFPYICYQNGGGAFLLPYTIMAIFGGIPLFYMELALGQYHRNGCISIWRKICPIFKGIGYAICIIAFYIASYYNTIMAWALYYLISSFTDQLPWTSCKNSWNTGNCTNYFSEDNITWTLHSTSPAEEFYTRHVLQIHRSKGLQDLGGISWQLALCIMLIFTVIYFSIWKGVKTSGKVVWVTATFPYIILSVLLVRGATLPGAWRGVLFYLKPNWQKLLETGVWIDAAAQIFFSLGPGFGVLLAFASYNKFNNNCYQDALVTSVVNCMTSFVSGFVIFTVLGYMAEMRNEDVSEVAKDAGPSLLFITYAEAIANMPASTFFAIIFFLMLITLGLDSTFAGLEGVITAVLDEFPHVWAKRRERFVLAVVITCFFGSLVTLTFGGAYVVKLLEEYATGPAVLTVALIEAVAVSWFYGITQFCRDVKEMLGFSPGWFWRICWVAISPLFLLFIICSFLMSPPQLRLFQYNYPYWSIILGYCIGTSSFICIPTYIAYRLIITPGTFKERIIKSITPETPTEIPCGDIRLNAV", "UniProt Q01959, whole entry": "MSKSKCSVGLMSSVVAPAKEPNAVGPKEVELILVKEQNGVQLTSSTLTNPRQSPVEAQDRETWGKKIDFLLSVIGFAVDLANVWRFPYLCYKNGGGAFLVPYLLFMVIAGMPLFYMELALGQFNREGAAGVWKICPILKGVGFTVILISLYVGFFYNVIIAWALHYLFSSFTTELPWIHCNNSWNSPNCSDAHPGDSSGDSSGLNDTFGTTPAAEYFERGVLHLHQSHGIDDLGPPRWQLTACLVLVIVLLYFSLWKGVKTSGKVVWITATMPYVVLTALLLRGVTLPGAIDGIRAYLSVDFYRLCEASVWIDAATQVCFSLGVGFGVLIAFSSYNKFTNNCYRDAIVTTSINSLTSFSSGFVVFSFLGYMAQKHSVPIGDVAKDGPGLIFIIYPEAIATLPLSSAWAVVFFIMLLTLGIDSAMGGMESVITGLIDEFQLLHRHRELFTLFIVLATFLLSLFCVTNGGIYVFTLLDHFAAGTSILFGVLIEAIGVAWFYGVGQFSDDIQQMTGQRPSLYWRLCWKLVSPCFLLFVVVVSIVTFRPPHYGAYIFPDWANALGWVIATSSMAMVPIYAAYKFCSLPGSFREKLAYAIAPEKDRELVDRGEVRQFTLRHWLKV"},
  "source": "patent US20260085036A1",
  "about": "(MiHKAL GmbH, priority 2022, published 2026)",
  "type_in_all_cases": "cell-based",
  "key": {"human NET [1]": {"molecular_target": "T1, human NET (Homo sapiens, UniProt P23975)", "T1 construct": "expressed in transfected cells", "assay": "Release assay, NET", "settings": "HEK293 cells expressing NET, [3H]MPP+"}, "human SERT [2]": {"molecular_target": "T2, human SERT (Homo sapiens, UniProt P31645)", "T2 construct": "expressed in transfected cells", "assay": "Release assay, SERT", "settings": "HEK293 cells expressing SERT, [3H]5-HT"}, "human DAT [3]": {"molecular_target": "T3, human DAT (Homo sapiens, UniProt Q01959)", "T3 construct": "expressed in transfected cells", "assay": "Uptake inhibition assay, DAT", "settings": "without pre-treatment with HCl", "description": "(§1) Human embryonic kidney (HEK) 293 cells stably expressing human DAT, NET or SERT were maintained in humidified atmosphere (37° C., 5% CO2) in Dulbecco's Modified Eagle Medium (DMEM), supplemented with 10% heat-inactivated fetal calf serum (FCS), streptomycin (100 μg×100 mL^−1) and penicillin (100 U×100 mL^−1). Geneticin (50 μg×mL^−1) was used as selection antibiotic.\n(§2) One day before the experiment, HEK293 cells expressing the respective transporters (DAT, NET or SERT) were seeded onto poly-D-lysine coated 96 well plates at a density of 30,000 cells per well in a final volume of 200 μL. For uptake experiments, the cell culture medium was replaced with […] Krebs-HEPES buffer (KHB; 25 mM HEPES, 120 mM NaCl, 5 mM KCl, 1.2 mM CaCl2, 1.2 mM MgSO4, and 5 mM D-glucose, pH 7.3). […]\n(§3) Uptake was terminated after 60 s (SERT) or 180 s (DAT, NET) by washing the cells with 200 μL ice-cold KHB. Subsequently, the cells were lysed with 200 μL Ultima Gold™ XR liquid scintillation cocktail, and the amount of tritium in the cells was measured with a Wallac 1450 MicroBeta® TriLux liquid scintillation counter. Monoamine uptake data were fitted by nonlinear regression, Vmax and Km values were calculated from Michaelis Menten's least-squares fit with GraphPad Prism (Prism 9.0.2, GraphPad Software, San Diego, CA, USA). […]"}, "human SERT [4]": {"molecular_target": "T2, human SERT", "assay": "Uptake inhibition assay, SERT", "settings": "without pre-treatment with HCl", "description": "as §1, §2, §3"}, "human NET [5]": {"molecular_target": "T1, human NET", "assay": "Uptake inhibition assay, NET", "settings": "without pre-treatment with HCl", "description": "as §1, §2, §3"}, "human DAT [6]": {"molecular_target": "T3, human DAT", "assay": "Release assay, DAT", "settings": "HEK293 cells expressing DAT, [3H]MPP+"}},
  "note": "At least one compound was matched to its structure with a doubt left.",
  "data": [
    {"smiles": "CC(N)Cc1ccc2c(c1)OCS2", "note": "(stereo not drawn) [RT054, Benzoxathiol-6-yl-propan-2-amine, reference compound]", "values": [
      {"measurement": "Transporter-mediated release (efflux), NET", "setting": "human NET [1]", "value": "almost full efficacious release"},
      {"measurement": "Transporter-mediated release (efflux), SERT", "setting": "human SERT [2]", "value": "partial releaser"},
      {"measurement": "Interaction with DAT in uptake inhibition assay (in words)", "setting": "human DAT [3]", "value": "inhibits substrate-uptake via all three transporters in a competitive manner"},
      {"measurement": "Interaction with SERT in uptake inhibition assay (in words)", "setting": "human SERT [4]", "value": "inhibits substrate-uptake via all three transporters in a competitive manner"},
      {"measurement": "Interaction with NET in uptake inhibition assay (in words)", "setting": "human NET [5]", "value": "inhibits substrate-uptake via all three transporters in a competitive manner"},
      {"measurement": "Transporter-mediated release (efflux), DAT", "setting": "human DAT [6]", "value": "almost full efficacious release"}
    ]},
    {"smiles": "CNC(C)Cc1ccc2c(c1)OCS2", "note": "(stereo not drawn) [RT056, Benzoxathiol-6-yl-N-methyl-propan-2-amine]", "values": [
      {"measurement": "Transporter-mediated release (efflux), NET", "setting": "human NET [1]", "value": "almost full efficacious release"},
      {"measurement": "Transporter-mediated release (efflux), SERT", "setting": "human SERT [2]", "value": "partial releaser"},
      {"measurement": "Interaction with DAT in uptake inhibition assay (in words)", "setting": "human DAT [3]", "value": "inhibits substrate-uptake via all three transporters in a competitive manner"},
      {"measurement": "Interaction with SERT in uptake inhibition assay (in words)", "setting": "human SERT [4]", "value": "inhibits substrate-uptake via all three transporters in a competitive manner"},
      {"measurement": "Interaction with NET in uptake inhibition assay (in words)", "setting": "human NET [5]", "value": "inhibits substrate-uptake via all three transporters in a competitive manner"},
      {"measurement": "Transporter-mediated release (efflux), DAT", "setting": "human DAT [6]", "value": "partial releaser"}
    ]}
  ]
}
